In ChEMBL document CHEMBL5335864 (ACS Med Chem Lett, 2024):

Assay: physchem
Settings: octanol/water, pH 7.4

| SMILES | logD |
| --- | --- |
| FC(F)(F)c1nc(-c2ccc(CCN3CCC(Nc4nc5ncccc5[nH]4)CC3)cc2)no1 | 6.71 |
| FC(F)(F)c1nc(-c2ccc(CCN3CCC(Nc4nc5cnccc5[nH]4)CC3)cc2)no1 | 8.59 |
